Assay: general procedure: Fmoc solid-phase peptide synthesis; Rink Amide resin, Rink Amide AM resin LL, Fmoc-Asp-(NovaSyn TGA)-OAll resin; HBTU/DIPEA; PyBOP or HBTU for cyclization
Details: conjugation step

| Substance | conjugation yield | final HPLC purity |
| --- | --- | --- |
| Nle-c(DHfRWK)-NODA-GA | 52% | 98% |
| Nle-c(DHfRWK)-cyanine-NODA-GA | 82% | 99% |
| Nle-c(DHfRWK)-dansyl-NODA-GA | 47% | 98% |
| Nle-c(DHfRWK)-pyrylium-NODA-GA | 70% | 99% |
| c(RGDfK)-NODA-GA | 23% | 97% |
| c(RGDfK)-cyanine-NODA-GA | 33% | 99% |
| c(RGDfK)-dansyl-NODA-GA | 49% | 99% |
| c(RGDfK)-pyrylium-NODA-GA | 38% | 99% |

Source: publication PMC8541144 (Pharmaceuticals, 2021)
